{"sequences": {"note": "Amino acid sequences for entries named in this document (tags omitted). Residues count along the entry.", "UniProt O43451, 356-737 limits assumed": "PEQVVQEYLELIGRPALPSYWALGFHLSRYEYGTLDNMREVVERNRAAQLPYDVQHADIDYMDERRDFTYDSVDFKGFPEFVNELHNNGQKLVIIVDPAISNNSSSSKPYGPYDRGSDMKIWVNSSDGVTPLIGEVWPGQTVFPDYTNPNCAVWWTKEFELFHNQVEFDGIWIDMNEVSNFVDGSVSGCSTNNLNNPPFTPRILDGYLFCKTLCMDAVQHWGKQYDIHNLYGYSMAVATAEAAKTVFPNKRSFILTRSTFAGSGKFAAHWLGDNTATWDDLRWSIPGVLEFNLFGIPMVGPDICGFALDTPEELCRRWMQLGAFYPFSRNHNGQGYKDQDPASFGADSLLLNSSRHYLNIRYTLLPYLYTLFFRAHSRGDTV"}, "source": "patent US8389565B2", "about": "“Glycosidase inhibitors and methods of synthesizing same” (Simon Fraser University, priority 2000, dated 2013)", "key": {"[1]": {"target": "Maltase Glucoamylase (MGA) (Homo sapiens, UniProt O43451)", "assay": "MGA activity in extracts of COS cells transfected with MGA5′ (maltase subunit) construct, maltose hydrolysis, glucose oxidase colorimetric assay", "format": "biochemical", "parameters": "COS cells transfected with MGA5′ (maltase subunit clone 10) construct were used; expressed in transfected cells; host or cells: COS cells", "procedure": "In the assays, COS cells transfected with MGA5′ (maltase subunit clone 10) construct were used. Activity measurements were performed with cell extracts containing MGA. Maltose hydrolysis was monitored by measurement of the glucose released by a glucose oxidase colorimetric assay. Inhibition of this hydrolysis was measured as a reduction in OD reading.\nIn practice, an OD reading in the absence of the inhibitor was recorded, followed by a reading in the presence of the inhibitor. The percent reduction in OD reading upon administering a candidate inhibitor (see Table 11) was then correlated with a percent inhibition for a given concentration."}, "[2]": {"test_system": "Sprague-Dawley rats", "assay": "In vivo maltose gavage in catheterized rats: plasma glucose and insulin", "parameters": "species or system rat", "conditions": "maltose gavage 1000 mg/kg with 25 mg/kg drug", "procedure": "Five week old Sprague-Dawley rats were housed singly under a 12:12-h light-dark photoperiod and given free access to water and rat chow (Purina rodent chow). After one week of acclimation, chronic indwelling catheters were implanted.\nAnimals were anesthetized with a combination of Ketamine-Xylazine-Butorphanol (0.1 ml/100 g im). Analgesic (Butorphenol, 1 mg/kg sc) was administered following recovery from anesthesia and the following morning. Antibiotic was administered by one dose sc and in the drinking water for 4 days post-operative (Baytril, 5 mg/kg sc, Bayer, Toronto, Canada; Baytril, 50 mg/ml: 0.36 ml solution in 250 ml drinking water). A sterile catheter (Intramedic PE-50 with ˜3 cm beveled Silastic tip) was placed in the left carotid artery and the distal end of the catheter was tunneled subcutaneously, exteriorized, and anchored at the nape of the neck. The catheters were protected from chewing by a stainless steel tether connected to a swivel system which allowed free movement of the animal and easy access to the catheter by the investigator.\nThe animals were allowed to recover for 1 week. Experiments were performed on conscious, unrestrained animals that had been fasted overnight by removal of chow from the cage hoppers at 2100. At 0800 the following morning animals were weighed and Atropine (0.05 mg/kg sc) was administered as a […]. At baseline, animals were administered a bolus of maltose by oral gavage (1000 mg/kg body weight) with or without drug (25 mg/kg body weight for all agents). Blood samples (0.1 mL) were taken via the implanted carotid line at -15 and -5 min for the baseline and at 7, 15, 30, 60, 90, 120, 210, 300 min.\nBlood samples were kept on ice in microcentrifuge tubes and then were centrifuged. The plasma was stored at −20° C. until it was assayed. Plasma volume was triple replaced with heparinized saline (10u/mL), but red blood cells were not reinfused. […] Plasma insulin concentrations were measured by rat insulin ELISA (Crystal Chem INC, Downers Grove, Ill.). […]"}, "[3]": {"target": "T1, Human Pancreatic α-Amylase (HPA) (Homo sapiens, UniProt P04746)", "T1 sequence (P04746 16-511)": "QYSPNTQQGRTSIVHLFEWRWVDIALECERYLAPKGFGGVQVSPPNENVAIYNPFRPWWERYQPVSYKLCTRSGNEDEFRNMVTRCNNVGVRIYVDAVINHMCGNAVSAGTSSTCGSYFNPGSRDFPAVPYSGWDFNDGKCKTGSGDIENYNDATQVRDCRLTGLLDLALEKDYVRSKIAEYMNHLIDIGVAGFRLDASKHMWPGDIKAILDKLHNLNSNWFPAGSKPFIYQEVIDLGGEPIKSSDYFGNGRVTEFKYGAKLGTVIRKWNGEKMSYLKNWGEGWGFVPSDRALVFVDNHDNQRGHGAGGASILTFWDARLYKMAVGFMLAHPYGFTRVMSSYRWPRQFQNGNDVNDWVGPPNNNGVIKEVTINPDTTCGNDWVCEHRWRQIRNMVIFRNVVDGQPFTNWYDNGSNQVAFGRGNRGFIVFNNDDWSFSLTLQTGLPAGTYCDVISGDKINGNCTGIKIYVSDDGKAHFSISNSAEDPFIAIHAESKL", "assay": "Human pancreatic α-amylase assay, hydrolysis of 2,4-Dinitrophenyl maltotrioside", "format": "biochemical", "procedure": "These assays were performed with purified enzyme. The ability of candidate inhibitors to inhibit the hydrolysis of 2,4-Dinitrophenyl maltotrioside was monitored by UV-visible spectroscopy of the released 2,4-dinitrophenol."}}, "note": "Entries after “also recorded” stand apart in the source; their conditions may differ. Structures can show the parent of a compound that is named as a salt. For at least one compound, name, drawing or mass did not settle the structure."}
{"smiles": "O=S(=O)([O-])OC(CO)C(O)C[Se+]1CC(O)C(O)C1CO", "note": "[Blintol, 1,4-Dideoxy-1,4-[[(2S,3S)-2,4-dihydroxy-3-(sulfooxy)butyl]episelenoniumylidene]-D-arabinitol Inner Salt]", "values": [{"measurement": "inhibition of MGA (in words)", "setting": "[1]", "result": "shows inhibition of MGA at lower concentrations than Salacinol"}, {"measurement": "plasma glucose profile (in words)", "setting": "[2]", "result": "lower profile than Acarbose; also recorded: significantly lower post-prandial plasma glucose"}, {"measurement": "plasma insulin profile (in words)", "setting": "[2]", "result": "significantly lower post-prandial plasma glucose and insulin concentrations"}, {"measurement": "glucose Area Under the Curve, 0-90 minutes (in words)", "setting": "[2]; excursion above basal", "result": "slightly lower 90 minute AUC's than Acarbose"}, {"measurement": "inhibition of HPA (in words)", "setting": "[3]", "result": "does not appear to inhibit HPA"}]}
